Measurements reported in PubChem BioAssay AID504744 (Drosophila RNAi Screening Center, 2011)
The deposit covers about 23,000 reagents; shown is an unselected part of those with a known target gene and a result. Over the whole deposit, 98 (0.43%) are marked active. 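Only hit calls are given; the phospho-dAkt signals, z-scores and hit direction were not deposited.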 Reagents against one gene are numbered here. Names joined by + are all predicted targets of the reagent.

- Aim: 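Find genes whose loss alters insulin-driven dAkt phosphorylation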 (primary screen)
- Cells: Drosophila Kc167 cells
- Knock-down reagent: long dsRNA against Drosophila genes, 250 ng dsRNA per well of a 384-well plate
- Timing: 3 days of knock-down, then overnight serum-free starvation before stimulation
- Challenge: bovine insulin at 387 nM for 10 minutes after 12 h without serum
- Measurement: 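Per-well phospho-dAkt level from an in-cell fluorescent antibody stain, divided by a DNA-dye signal; log2 residuals turned into z-scores that take cell number into account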
- Hit rule: 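Under insulin, a gene counts as a hit if the average z-score of two replicates lies above 2.5 or below -2.5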

Against CG14315 the deposit lists inactive. Knock-down of CG13216 resulted in: inactive. Silencing of CG17380 resulted in: inactive. After knock-down of CG31975 + ovm the results were inactive. CG32532 #1 showed inactive. Knock-down of CG32532 #2 came out at: inactive.

Depletion of CG32532 #3 came out at: inactive. After knock-down of CG32532 #4, the record shows inactive. Depletion of Snrk resulted in: inactive. For bys, the values are inactive. Knock-down of ct came out at: inactive. With knock-down of Obp50d the results were inactive.

Silencing of CG9512 gave: inactive. CG2150 gave inactive. With knock-down of CG17224, the record shows inactive. After knock-down of CG4318, the record shows inactive. Gcat showed inactive. Depletion of CG4404 came out at: inactive.

After knock-down of CG17666 the results were inactive. After knock-down of CG7824 the results were inactive. With knock-down of CG8475, the screen gave inactive. Against CG10183, the values are inactive. Depletion of CG4951 resulted in: inactive. CG10492 scored inactive.

Mal-A3 gave inactive. With knock-down of Mnat9, the record shows inactive. Against CG30467, the values are inactive. Knock-down of RpS18 came out at: inactive. With knock-down of E(var)3-9 the results were inactive. For CG34345, the entry reads inactive.

eEFSec scored inactive. With knock-down of CG32751, the record shows inactive. CG12155 gave inactive. Against mRpL50, the entry reads inactive. After knock-down of Vps37B, the screen gave active. After knock-down of Dref, the record shows inactive.

puf gave inactive. salm showed inactive. After knock-down of CG4631 #1, the record shows inactive. Depletion of CG4631 #2 came out at: inactive. Knock-down of CG1513 #1 came out at: inactive. Against CG1513 #2 the deposit lists inactive.

Against CG1513 #3 the deposit lists inactive. BaraA1 + BaraA2 showed inactive. Silencing of Hgsnat came out at: inactive. After knock-down of Jhbp11 the results were inactive. Silencing of MtnA came out at: inactive. For CG14949 the deposit lists inactive.

For CG17717 the deposit lists inactive. Knock-down of CG12942 resulted in: inactive. Against Itgbn, the entry reads inactive. ND-MLRQ scored inactive. Depletion of CG31637 #1 came out at: inactive. Against CG31637 #2, the values are inactive.

After knock-down of CG5439, the screen gave inactive. Against CG34247 the deposit lists inactive. For CG11983 the deposit lists inactive.
